Laboratory results taken from the supplement of paper PMC3334620.
Whole data set: some 33,000 sequences, median “E-score (-0.5 to 0.5)” near -0.0034, cut for the highest 2% near 0.25. The list shows a part of the results.

Target: T1, Yap3 (UniProt P38749)
T1 sequence: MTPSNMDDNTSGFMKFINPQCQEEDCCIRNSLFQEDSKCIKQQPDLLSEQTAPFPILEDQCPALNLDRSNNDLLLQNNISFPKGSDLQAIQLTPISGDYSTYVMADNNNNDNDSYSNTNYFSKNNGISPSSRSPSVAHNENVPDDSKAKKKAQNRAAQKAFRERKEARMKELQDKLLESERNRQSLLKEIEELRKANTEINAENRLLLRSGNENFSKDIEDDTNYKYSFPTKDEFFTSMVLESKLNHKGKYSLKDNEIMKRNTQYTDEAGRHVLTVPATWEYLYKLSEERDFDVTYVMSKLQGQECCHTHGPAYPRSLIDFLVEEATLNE
Test: PBM E-score (8-mer binding enrichment) (E-score (-0.5 to 0.5)); higher = stronger / more preferred TF binding
Conditions: protein concentration: 100 nM; construct: GST-full length
Protocol: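 Universal 'all 10-mer' protein binding microarrays (Agilent AMADID 015681) probed with GST-tagged S. cerevisiae TFs (full-length or DBD) made by in vitro transcription/translation (PURExpress), about 100-200 nM. Bound TF was detected with fluorescent anti-GST. Each ungapped 8-mer (which stands for itself and its reverse complement) is scored by the PBM enrichment score (E-score), a modified Wilcoxon-Mann-Whitney statistic from -0.5 to +0.5, computed with the Universal PBM Analysis Suite. Scale: above 0.35 generally sequence-specific binding.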

Sequence	PBM E-score
CAATCGAA	0.0747
CAAGCCCA	-0.113
CACCATCA	-0.0192
AAGCTGGA	-0.124
AACTGGTG	-0.157
GTTTCTCA	0.0141
TAGAGGCA	-0.0959
AAGTCCGA	-0.0818
AGATACGG	0.0567
TAAAGGGA	0.0664
GATATAGC	0.148
AAGAGCCA	0.101
GACACATC	-0.0641
CTGCGATA	-0.112
CCTTTTAA	-0.0447
ACGACCGA	-0.0361
GTATTGAC	0.0197
GGGGAAAC	-0.0891
GGGATGTA	0.0252
AAGAGACC	-0.0437
ATCCAATG	-0.0901
CTCATGGA	-0.135
CCAGGAGC	-0.31
GACACTCC	-0.0249
CATGACGA	0.107

Sequence	PBM E-score
CAAAGGAG	0.0695
TCATGAGA	0.0159
CACTGATG	-0.175
GCGCCGTA	-0.00389
GACGGCCA	-0.0623
AAACGTGT	-0.0207
ATAAAGAG	0.0509
AACGATCC	-0.191
AGTAAATG	0.0753
ACTTTGAG	-0.0896
GCTTTGTA	0.259
ATTGCATG	0.122
CCCTGCCC	-0.244
CAAGCCGC	-0.248
AATGGTCG	-0.143
AAGGGGGT	-0.355
CAGTCCTC	-0.2
ATCCCGTC	-0.0813
ACGGTACA	0.136
GGGAGCAC	-0.323
CACCATAA	0.152
ATCATTCG	0.206
TACCAGCA	-0.0181
AGATGGCG	0.103
GTCTAGGA	-0.161

Sequence	PBM E-score
AGGTGTGG	-0.121
ACCTGTGA	0.0275
GTATTTTA	0.0831
CAAGCCCG	-0.296
ACTTATAA	0.148
TCTGAGAA	0.111
ATAAGTCA	0.262
GATTGTAC	-0.0108
CCAATACA	0.162
GAAGTTAC	0.175
AGTAGCAG	0.0436
ATCGCGAG	0.167
AAAATCAC	0.158
CCCGCGAG	-0.113
GGACTTAA	-0.0964
CGAACCAA	-0.00985
AAAGTTCG	0.181
AACCGTAG	-0.193
ATTTGCTA	0.181
AAAATTTT	0.246
GTAGAAAC	0.0115
AAGGTGAA	0.0235
AGTCAAGA	-0.0596
CGAAGCAA	0.0791
ACCCAGTC	-0.0488

Sequence	PBM E-score
CCTCAACA	0.102
TCCCAACA	-0.0353
CGCTCAAG	-0.114
AGTCCTAT	0.0522
CACACTGC	-0.0177
CAGTTCCA	-0.0933
AAGTGGCT	-0.0321
CCGTTTCC	0.0637
CGTCCCTC	-0.209
CATGTTCG	-0.0904
TAACGTGA	0.0273
CCGAAAGC	-0.21
GGGATGGA	-0.171
GCAGACTA	-0.0847
ATCCCAGC	-0.0719
CTTACCTC	0.0214
ACGCTGCG	-0.0892
CGAAAAAA	0.229
AGCCACTC	-0.154
GGCATAGA	0.0675
GATGTTAC	0.104
CAAGGCCG	-0.0878
AAGTAGTC	-0.0821
TCAGAGGA	-0.122
CGCTGCAG	-0.0323

Sequence	PBM E-score
CACAGTGC	-0.0614
CTCCCGAA	-0.124
ATCCACTA	0.124
CTTCACGC	0.128
CCTTTCCG	-0.215
AAAATGCA	-0.0446
AACTCAGA	-0.0359
AAACCAAT	0.136
GCGTTAAA	-0.0726
GGAAACCC	0.0773
GCCTTTCC	-0.15
GCATATCA	0.191
AACGTATT	0.0931
GGGGAGAC	-0.304
AGCAGTAT	0.159
CAACATGA	0.108
CAGCTAAA	-0.044
CCTATCCC	0.0708
AATTACAG	0.195
ATGTGCCA	0.0129
CCACTGGA	-0.147
ATCCTGAG	-0.0543
CTTAAAGC	-0.0553
CCGATTGA	0.0881
CCATGGCG	-0.0321

Sequence	PBM E-score
AACGTGAT	0.113
AGACGCCC	-0.165
AAATTTTA	0.118
GCGCCACA	-0.00462
CCAAAATC	0.123
AGAGCCCG	-0.237
ATTAACAA	0.282
GAACACCA	-0.103
CCTCCAAG	-0.0941
AGGCACCA	-0.0616
AATCGATA	0.229
ACCGTTAT	0.141
ACTCATCA	-0.0345
CCTTCCGC	-0.175
GAATGACC	0.0254
ACGCCTAC	-0.178
AATAGTTA	0.0935
CATTAGTA	0.289
GAGCAATA	-0.0269
AGCACTTC	-0.0014
AAGTGGGG	-0.178
ACCCATCC	-0.241
TCGTTAAA	0.108
CACATCTC	0.198
TCATCAAA	-0.0185

In a second layout: entries from further up.
Sequence,PBM E-score
TAACGTGA,0.0273
CCGAAAGC,-0.21
GGGATGGA,-0.171
GCAGACTA,-0.0847
ATCCCAGC,-0.0719
CTTACCTC,0.0214
ACGCTGCG,-0.0892

Continuation.

Sequence	PBM E-score
TCGATAGA	-0.0154
AAGTGGAG	0.159
CAAAACGA	0.133
CAAATTAA	0.155
ATGAGATC	0.0571
CACGACGA	-0.214
ATCCGTTC	0.057
AATACAAT	0.18
AACGGTGA	-0.0384
ACACATGC	0.0454
GAGGATCC	-0.0934
GTCTCGTA	-0.0465
CATTCTGC	0.126
ATCACCTA	0.00994
TAAACAGA	0.0916
CTCAAGCA	-0.191
AATCATGC	-0.0909
AAGAACGT	0.125
CCCCATGC	-0.303
TTCGTCAA	0.0747
CAATTCAG	-0.0246
GTCTAAAC	0.174
